Experimental data reported in article PMC3060874.
Results are given in words; binding and its absence hold for the method and conditions named. In cells and extracts the contact can be indirect. Some results given as binding are weak or reduced against the parent protein; the word gives no strength.

The chains behind the UniProt entries cited, without tags or fusion partners. Where a name states a change or a piece, a line headed by the entry shows the natural chain unless it says otherwise. A line that says so, or that is headed by a name, gives the form on record, which may keep a tag or linker.
UniProt O94953: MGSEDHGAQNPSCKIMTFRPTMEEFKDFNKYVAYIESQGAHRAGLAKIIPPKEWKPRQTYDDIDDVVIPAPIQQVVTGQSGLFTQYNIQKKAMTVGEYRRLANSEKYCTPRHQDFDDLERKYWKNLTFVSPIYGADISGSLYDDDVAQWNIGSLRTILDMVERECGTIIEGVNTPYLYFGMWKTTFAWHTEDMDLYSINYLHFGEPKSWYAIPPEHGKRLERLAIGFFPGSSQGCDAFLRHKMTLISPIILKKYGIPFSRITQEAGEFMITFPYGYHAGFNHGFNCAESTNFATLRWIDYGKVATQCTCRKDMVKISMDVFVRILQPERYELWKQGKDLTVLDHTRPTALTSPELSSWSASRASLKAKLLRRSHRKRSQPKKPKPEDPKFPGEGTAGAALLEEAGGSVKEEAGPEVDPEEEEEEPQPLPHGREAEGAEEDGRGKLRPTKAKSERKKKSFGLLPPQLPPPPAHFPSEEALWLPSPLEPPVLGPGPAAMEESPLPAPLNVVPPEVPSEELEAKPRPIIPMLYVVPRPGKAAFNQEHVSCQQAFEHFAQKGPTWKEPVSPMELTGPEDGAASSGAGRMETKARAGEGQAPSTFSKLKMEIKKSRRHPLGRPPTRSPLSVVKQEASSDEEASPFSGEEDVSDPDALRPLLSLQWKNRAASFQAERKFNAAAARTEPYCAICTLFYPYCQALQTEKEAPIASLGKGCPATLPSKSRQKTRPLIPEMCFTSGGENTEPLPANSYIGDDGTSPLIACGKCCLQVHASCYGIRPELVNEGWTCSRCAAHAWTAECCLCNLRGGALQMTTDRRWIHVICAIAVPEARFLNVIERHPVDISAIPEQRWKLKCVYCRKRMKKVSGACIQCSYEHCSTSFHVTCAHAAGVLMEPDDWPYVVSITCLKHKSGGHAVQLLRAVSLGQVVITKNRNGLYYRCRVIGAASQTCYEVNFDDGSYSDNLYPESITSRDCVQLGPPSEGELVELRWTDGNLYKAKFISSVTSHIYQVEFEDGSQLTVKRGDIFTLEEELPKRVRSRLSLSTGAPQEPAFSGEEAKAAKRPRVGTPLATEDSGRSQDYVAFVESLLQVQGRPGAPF
FLAG-ΔFeJMJD2B (O94953, form named): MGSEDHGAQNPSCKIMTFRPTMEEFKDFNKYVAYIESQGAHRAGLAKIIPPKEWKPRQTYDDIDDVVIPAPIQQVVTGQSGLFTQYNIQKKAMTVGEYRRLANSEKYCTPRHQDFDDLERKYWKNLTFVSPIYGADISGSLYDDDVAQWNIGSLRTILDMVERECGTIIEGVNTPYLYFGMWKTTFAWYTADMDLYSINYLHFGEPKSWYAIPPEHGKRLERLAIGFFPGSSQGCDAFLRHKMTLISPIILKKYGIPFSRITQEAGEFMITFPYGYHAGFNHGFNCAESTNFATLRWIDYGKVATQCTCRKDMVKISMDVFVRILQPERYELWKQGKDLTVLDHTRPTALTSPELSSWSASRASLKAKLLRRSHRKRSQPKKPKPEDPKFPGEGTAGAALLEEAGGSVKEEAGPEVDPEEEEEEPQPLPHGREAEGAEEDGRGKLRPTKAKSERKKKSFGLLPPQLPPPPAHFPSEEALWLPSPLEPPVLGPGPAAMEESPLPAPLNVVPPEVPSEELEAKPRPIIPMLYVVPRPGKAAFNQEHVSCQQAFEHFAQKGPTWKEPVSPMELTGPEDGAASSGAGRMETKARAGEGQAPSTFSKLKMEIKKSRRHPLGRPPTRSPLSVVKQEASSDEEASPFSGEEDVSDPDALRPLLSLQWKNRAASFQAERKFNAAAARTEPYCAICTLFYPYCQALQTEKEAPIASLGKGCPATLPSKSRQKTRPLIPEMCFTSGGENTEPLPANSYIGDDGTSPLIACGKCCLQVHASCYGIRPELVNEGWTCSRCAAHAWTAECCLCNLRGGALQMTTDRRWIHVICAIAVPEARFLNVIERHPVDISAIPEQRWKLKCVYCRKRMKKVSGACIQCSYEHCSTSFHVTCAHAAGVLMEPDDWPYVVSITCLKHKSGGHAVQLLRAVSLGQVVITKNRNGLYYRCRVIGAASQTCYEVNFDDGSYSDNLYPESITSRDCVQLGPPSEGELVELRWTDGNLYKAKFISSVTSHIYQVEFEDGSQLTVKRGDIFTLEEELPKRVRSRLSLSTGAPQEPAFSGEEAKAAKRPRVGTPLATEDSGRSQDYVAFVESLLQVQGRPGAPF
UniProt P03372: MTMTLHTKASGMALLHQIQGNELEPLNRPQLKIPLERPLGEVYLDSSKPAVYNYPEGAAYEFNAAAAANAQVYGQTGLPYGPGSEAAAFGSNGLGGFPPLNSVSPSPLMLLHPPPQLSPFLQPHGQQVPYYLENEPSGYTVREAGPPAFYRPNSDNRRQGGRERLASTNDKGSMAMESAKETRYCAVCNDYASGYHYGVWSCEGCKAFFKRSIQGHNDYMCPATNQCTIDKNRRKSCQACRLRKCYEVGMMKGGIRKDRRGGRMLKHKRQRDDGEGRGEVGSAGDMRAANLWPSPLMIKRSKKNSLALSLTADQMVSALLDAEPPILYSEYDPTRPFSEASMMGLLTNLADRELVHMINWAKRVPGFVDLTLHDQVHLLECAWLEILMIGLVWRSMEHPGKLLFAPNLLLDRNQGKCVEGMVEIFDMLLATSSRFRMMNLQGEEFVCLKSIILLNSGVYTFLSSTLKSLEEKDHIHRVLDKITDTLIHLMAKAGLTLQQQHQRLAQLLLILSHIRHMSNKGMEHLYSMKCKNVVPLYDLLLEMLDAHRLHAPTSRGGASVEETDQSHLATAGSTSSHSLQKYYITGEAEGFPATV
UniProt P51532: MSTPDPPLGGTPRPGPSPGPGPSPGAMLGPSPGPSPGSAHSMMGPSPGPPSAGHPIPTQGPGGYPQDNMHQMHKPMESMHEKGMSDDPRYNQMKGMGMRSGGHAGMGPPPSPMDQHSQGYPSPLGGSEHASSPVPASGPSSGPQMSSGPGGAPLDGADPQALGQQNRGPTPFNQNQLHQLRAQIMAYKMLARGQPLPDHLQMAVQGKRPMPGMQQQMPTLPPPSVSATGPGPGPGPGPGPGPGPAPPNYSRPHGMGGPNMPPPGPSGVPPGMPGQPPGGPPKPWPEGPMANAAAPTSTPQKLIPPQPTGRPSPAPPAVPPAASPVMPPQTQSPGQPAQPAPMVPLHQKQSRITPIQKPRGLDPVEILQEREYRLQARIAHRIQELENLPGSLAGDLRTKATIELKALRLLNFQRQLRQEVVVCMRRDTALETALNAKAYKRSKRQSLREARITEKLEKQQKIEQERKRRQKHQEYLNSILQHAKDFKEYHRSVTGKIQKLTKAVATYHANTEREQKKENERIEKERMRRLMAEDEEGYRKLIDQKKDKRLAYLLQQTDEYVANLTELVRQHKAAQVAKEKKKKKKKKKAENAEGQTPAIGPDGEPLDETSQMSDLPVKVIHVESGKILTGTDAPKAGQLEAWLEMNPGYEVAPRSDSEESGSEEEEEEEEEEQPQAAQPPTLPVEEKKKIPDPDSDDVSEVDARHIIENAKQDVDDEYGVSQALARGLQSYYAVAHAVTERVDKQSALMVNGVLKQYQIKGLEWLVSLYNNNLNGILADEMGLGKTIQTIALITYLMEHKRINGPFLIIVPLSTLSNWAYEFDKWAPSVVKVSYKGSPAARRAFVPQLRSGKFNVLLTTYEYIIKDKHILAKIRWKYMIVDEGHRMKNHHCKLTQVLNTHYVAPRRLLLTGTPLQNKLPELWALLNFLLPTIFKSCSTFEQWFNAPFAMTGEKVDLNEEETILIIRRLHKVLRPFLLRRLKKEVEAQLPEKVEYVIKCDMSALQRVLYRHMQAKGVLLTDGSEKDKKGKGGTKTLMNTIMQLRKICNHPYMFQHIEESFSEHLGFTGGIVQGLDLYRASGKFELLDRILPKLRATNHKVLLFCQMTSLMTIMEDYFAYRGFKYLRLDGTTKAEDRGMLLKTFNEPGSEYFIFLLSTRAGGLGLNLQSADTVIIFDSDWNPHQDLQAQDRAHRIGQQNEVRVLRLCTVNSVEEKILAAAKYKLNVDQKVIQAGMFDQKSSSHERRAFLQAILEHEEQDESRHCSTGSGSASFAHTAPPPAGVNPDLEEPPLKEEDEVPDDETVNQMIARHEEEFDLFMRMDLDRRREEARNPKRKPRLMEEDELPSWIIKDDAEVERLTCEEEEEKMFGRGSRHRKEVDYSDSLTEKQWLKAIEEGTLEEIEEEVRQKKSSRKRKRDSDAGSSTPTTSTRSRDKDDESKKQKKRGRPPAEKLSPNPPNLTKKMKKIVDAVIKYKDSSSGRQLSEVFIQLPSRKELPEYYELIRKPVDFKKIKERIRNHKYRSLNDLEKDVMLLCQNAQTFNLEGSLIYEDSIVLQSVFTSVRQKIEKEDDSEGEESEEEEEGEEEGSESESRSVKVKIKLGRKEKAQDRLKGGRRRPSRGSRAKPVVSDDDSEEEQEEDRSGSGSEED
UniProt Q86U86: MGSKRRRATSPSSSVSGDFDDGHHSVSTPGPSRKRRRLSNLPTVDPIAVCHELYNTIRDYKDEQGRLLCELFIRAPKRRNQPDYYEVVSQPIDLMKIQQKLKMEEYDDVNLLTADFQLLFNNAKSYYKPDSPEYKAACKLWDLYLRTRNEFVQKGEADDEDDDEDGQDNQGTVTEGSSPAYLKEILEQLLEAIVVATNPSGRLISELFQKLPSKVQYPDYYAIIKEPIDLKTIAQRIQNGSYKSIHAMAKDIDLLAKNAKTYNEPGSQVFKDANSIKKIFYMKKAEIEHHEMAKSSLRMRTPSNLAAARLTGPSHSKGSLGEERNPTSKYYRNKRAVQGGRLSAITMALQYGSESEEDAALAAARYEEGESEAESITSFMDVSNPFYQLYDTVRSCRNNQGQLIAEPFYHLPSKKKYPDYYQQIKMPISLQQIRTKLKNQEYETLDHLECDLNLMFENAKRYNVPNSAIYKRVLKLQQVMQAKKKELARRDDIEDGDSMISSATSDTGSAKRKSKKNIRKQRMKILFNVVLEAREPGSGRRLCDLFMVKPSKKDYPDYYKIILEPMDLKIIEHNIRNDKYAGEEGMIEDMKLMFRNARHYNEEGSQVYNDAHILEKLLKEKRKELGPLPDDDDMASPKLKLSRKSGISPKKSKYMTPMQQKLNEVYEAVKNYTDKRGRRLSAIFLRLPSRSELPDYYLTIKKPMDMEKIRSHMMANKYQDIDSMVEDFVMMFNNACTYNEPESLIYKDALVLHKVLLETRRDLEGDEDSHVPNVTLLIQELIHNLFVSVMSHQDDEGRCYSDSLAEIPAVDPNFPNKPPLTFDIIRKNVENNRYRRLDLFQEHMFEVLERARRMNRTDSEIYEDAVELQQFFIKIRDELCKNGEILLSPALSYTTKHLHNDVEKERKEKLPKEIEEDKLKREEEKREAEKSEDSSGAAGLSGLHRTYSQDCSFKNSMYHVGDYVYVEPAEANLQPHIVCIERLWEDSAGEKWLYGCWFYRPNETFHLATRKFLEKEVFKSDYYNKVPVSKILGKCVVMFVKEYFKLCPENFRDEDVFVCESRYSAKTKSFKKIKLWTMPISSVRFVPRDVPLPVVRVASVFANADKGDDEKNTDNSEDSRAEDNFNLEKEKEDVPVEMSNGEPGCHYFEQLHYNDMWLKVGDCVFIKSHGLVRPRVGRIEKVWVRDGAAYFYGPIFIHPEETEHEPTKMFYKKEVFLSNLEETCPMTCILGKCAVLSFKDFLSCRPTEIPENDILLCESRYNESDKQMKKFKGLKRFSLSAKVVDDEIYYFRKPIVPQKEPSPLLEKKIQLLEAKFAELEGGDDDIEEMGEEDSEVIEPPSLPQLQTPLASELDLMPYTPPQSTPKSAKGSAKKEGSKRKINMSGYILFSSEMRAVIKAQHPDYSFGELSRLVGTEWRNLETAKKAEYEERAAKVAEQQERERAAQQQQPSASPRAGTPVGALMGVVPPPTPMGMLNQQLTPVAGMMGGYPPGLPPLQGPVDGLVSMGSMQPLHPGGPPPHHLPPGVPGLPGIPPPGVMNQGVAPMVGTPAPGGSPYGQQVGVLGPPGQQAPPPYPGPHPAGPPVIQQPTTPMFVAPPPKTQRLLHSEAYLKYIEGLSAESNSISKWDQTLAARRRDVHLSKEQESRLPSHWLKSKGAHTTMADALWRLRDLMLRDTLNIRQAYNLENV

How the values were obtained:
[1] = biological target: T1, JMJD2C (endogenous) (human (endogenous in T-47D)) (UniProt Q9H3R0); assay: co-IP; nuclear lysates of T-47D cells immunoprecipitated with control IgG or antibodies to endogenous proteins on protein A magnetic beads, 4°C overnight, NP-40 IP lysis buffer (50 mM Tris-HCl pH 7.6, 150 mM NaCl, 1% NP-40, 1 mM EDTA), sonicated; with or without estrogen stimulation; with or without Benzonase
T1 sequence: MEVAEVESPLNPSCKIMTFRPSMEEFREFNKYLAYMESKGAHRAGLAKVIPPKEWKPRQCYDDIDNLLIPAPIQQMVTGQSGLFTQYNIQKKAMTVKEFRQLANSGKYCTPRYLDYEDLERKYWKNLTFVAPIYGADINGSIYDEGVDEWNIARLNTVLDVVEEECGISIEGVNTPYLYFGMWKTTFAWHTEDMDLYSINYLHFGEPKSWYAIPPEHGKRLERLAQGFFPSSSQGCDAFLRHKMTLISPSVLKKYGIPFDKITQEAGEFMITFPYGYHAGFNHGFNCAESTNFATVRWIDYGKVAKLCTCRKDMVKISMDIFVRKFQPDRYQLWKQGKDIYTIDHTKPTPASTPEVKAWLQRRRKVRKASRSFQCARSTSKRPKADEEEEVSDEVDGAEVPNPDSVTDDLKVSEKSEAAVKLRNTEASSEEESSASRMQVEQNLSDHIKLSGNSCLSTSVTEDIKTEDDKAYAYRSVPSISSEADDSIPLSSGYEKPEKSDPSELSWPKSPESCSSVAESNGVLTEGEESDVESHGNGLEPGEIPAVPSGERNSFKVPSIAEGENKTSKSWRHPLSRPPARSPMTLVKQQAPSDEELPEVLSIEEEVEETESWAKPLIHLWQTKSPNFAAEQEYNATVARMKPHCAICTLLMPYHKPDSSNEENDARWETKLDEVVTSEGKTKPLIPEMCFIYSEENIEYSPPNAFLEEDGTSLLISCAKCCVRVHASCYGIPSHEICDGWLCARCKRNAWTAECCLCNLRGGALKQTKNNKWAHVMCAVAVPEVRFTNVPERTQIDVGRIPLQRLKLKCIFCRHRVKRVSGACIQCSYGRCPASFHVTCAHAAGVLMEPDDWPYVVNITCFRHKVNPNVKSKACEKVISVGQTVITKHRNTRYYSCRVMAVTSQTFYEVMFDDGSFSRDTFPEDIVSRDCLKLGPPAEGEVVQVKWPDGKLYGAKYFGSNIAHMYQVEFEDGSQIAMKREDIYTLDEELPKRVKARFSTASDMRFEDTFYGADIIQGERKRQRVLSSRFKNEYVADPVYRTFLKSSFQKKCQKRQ

[2] = biological target: JMJD2B (endogenous) (human (endogenous in T-47D)) (UniProt O94953); assay: as above
[3] = biological target: T2, JMJD2A (endogenous) (human (endogenous in T-47D)) (UniProt O75164); assay: as above
T2 sequence: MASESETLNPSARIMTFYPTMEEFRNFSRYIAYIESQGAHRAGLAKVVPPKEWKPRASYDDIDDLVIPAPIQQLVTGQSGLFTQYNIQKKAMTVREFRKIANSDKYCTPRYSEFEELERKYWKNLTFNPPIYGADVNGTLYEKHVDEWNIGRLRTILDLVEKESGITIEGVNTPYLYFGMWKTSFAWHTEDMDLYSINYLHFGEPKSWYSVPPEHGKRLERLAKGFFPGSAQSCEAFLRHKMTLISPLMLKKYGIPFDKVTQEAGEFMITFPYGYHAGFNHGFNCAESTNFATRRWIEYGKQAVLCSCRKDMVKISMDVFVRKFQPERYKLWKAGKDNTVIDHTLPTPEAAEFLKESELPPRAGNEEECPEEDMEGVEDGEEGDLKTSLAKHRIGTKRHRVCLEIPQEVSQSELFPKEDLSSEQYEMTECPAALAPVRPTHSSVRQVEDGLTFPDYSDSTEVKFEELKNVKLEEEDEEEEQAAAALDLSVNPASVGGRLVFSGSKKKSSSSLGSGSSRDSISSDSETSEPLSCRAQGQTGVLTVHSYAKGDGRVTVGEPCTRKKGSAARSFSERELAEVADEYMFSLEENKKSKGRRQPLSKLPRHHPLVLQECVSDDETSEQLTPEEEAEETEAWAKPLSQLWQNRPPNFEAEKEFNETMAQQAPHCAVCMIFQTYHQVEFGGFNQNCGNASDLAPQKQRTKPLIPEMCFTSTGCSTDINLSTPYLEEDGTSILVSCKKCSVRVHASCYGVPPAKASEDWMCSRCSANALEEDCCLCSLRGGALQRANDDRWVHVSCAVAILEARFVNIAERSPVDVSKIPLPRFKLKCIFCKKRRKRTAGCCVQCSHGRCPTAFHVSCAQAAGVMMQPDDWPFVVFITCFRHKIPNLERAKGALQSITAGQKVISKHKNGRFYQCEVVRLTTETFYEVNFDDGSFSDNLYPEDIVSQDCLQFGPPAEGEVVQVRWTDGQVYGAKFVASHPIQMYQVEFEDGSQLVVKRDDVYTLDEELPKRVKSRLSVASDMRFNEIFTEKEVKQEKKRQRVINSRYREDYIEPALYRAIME

MYC-tagged ERα = MYC-tagged ERα (UniProt P03372); assay: co-IP; 293T cells co-transfected with FLAG-JMJD2B (or FLAG-ΔFeJMJD2B) and MYC-ERα or empty vector; α-MYC immunoprecipitates blotted with α-FLAG antibody

binding [1]	binding [2]	binding [3]	binding (MYC-tagged ERα)	Substance
binds	binds	binds	–	BRG1 ATPase (from UniProt P51532 1-1647)
binds	binds	binds	–	ERα (endogenous) (from UniProt P03372 1-595) (receptor)
–	–	–	binds	FLAG-tagged JMJD2B (from UniProt O94953 1-1096)

The next lines start with the substance.

Substance	binding [1]	binding [2]	binding [3]	binding (MYC-tagged ERα)
FLAG-ΔFeJMJD2B (from UniProt O94953 1-1096)	–	–	–	binds
Polybromo1 (from UniProt Q86U86 1-1689)	binds	binds	binds	–
p300 (from UniProt Q09472 1-2414)	–	no binding	–	–
